From patent publication US8821938B2, “Porous drug matrices and methods of manufacture thereof” (Acusphere, Inc., priority 1999, dated 2014)

Key:
[1] = Density of dry powder by Transaxial Pressure (TAP), Micromeritics GeoPyc 1360; type: physicochemical; conditions: consolidation force of 8 Newtons
[2] = Drug integrity post processing by HPLC; type: physicochemical
Procedure: Drug integrity post processing was assessed by High Pressure Liquid Chromatography (“HPLC”) (Hewlett Packard Series 1100 HPLC). USP chromatography conditions were used for prednisone, naproxen, nifedipine, and griseofulvin. Vessels and vials containing naproxen or nifedipine solutions were protected from light. For paclitaxel, the chromatographic conditions included a Nucleosil column (5:m, C18, 100A, 250×4.6 mm), a mobile phase of 2 mM H3PO4/Acetonitrile (2:3) at a flow rate of 1.5 mL/min, UV detection at 227 nm, and a run time of 25 min.

With `COc1ccc2cc([C@H](C)C(=O)O)ccc2c1` [Naproxen Bulk, naproxen] the Density [1] was 0.69 g/mL and the “Purity (drug integrity post processing)” value [2] was 100%.
